In paper PMC6315883 one finds binding data, which are given here for two molecules.

Amino acid sequences for entries named in this document (tags omitted). Residues count along the entry.
UniProt P16144, residues 28-1822: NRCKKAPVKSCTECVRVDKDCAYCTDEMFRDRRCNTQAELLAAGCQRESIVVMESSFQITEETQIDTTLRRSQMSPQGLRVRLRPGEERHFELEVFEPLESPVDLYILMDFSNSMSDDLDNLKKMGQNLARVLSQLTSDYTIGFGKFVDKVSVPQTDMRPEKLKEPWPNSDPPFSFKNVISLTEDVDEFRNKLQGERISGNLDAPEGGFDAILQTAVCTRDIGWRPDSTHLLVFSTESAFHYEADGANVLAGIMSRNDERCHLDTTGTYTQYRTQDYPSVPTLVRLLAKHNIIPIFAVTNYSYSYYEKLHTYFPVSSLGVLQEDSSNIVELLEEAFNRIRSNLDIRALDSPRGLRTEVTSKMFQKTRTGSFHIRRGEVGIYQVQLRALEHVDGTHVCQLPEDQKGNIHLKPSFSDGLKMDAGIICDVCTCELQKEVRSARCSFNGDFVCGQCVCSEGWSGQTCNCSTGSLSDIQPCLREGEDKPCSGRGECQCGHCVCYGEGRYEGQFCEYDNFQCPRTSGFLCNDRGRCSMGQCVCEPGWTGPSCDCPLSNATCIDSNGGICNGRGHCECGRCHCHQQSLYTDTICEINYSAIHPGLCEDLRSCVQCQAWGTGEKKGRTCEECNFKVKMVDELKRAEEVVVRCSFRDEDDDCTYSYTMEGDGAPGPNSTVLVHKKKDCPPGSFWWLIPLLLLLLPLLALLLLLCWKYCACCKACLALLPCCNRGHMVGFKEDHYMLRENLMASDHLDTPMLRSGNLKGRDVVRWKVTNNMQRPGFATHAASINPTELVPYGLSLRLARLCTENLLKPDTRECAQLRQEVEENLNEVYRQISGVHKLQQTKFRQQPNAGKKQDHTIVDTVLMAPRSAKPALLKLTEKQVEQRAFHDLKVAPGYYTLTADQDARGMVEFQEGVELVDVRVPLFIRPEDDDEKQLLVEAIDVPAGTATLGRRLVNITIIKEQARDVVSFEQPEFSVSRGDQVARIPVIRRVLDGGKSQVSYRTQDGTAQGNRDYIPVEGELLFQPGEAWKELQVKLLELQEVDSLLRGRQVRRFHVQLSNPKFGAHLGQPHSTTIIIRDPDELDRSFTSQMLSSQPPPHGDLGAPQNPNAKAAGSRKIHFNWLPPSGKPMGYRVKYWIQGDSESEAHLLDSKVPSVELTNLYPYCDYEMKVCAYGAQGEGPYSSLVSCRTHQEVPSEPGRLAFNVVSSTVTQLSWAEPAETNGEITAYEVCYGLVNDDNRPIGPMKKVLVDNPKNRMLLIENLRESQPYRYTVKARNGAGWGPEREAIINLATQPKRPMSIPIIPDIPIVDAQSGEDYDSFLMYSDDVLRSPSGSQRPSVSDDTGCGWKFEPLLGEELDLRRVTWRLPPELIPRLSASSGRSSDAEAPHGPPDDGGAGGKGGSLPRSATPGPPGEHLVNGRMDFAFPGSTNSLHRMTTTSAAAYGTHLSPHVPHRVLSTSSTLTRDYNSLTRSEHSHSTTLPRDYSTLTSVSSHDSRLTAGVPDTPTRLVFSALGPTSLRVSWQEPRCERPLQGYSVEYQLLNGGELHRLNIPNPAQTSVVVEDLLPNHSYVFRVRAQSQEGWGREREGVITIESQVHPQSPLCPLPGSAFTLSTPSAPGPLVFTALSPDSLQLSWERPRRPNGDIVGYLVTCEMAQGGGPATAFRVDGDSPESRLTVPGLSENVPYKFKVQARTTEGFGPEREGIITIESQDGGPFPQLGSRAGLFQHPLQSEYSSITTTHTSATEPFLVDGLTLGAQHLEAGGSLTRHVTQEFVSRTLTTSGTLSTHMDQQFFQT
UniProt P46934: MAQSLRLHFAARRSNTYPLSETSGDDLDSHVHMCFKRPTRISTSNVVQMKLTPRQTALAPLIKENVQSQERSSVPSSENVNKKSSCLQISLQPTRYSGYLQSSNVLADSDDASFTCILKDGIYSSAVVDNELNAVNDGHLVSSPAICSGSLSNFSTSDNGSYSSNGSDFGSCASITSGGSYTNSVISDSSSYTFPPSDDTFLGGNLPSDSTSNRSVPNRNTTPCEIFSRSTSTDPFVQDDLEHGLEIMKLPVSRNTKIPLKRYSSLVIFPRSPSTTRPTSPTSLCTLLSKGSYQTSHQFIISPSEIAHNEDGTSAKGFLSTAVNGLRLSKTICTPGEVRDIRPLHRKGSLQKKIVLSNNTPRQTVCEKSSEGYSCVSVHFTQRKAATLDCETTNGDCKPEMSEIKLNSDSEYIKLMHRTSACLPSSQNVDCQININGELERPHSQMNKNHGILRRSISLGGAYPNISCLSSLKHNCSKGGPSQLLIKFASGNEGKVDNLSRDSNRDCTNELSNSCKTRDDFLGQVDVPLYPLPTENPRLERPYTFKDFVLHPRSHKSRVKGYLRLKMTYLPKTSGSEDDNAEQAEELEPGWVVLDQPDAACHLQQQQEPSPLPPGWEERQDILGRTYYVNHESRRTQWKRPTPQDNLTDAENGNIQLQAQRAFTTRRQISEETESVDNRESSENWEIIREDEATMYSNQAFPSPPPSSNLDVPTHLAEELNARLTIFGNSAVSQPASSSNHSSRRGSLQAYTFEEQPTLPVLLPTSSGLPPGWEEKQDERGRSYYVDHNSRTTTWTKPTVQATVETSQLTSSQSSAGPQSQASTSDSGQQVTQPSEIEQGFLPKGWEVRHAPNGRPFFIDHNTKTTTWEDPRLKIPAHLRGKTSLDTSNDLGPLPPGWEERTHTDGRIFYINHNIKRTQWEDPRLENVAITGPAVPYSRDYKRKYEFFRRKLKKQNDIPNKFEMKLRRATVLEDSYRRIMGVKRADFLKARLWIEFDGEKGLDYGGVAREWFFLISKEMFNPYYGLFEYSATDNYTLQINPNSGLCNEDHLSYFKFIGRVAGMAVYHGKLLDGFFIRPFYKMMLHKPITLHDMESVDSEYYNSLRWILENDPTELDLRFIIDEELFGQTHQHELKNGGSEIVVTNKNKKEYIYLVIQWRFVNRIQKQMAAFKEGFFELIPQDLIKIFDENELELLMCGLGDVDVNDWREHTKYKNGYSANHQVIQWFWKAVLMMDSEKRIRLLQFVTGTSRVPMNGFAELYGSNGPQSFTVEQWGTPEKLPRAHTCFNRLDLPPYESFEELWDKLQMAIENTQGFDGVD

In assay [1] the target is integrin β4 (human (endogenous in MDA-MB-231)) (UniProt P16144). In words: co-IP; MDA-MB-231 cells transfected with HA-NEDD4; endogenous ITG β4 immunoprecipitated and blotted for HA (left panel); reverse IP with HA trap beads and blot for ITG β4 (right panel); CellLytic M lysis buffer, overnight at 4 °C.
The target in a further assay is 3xHA-NEDD4 (UniProt P46934). In words: co-IP; MDA-MB-231 cells co-transfected with GFP or GFP-ARRDC3 and HA or HA-NEDD4; IP with HA trap beads, blots with ITG β4, HA and GFP antibodies.

Results are given in words; binding and its absence hold for the method and conditions named. Binding seen in cells or lysates may run through a third protein. Some results given as binding are weak or reduced against the parent protein; the word gives no strength. For some assays here: Sequences can lack the tags named with a protein.

Regarding “3xHA-NEDD4 (from UniProt P46934 1-1319) (enzyme)”, the binding result in assay [1] is “binds”.

B1: GFP-ARRDC3 (protein, UniProt Q96B67 1-414)
chain: MVLGKVKSLTISFDCLNDSNVPVYSSGDTVSGRVNLEVTGEIRVKSLKIHARGHAKVRWTESRNAGSNTAYTQNYTEEVEYFNHKDILIGHERDDDNSEEGFHTIHSGRHEYAFSFELPQTPLATSFEGRHGSVRYWVKAELHRPWLLPVKLKKEFTVFEHIDINTPSLLSPQAGTKEKTLCCWFCTSGPISLSAKIERKGYTPGESIQIFAEIENCSSRMVVPKAAIYQTQAFYAKGKMKEVKQLVANLRGESLSSGKTETWNGKLLKIPPVSPSILDCSIIRVEYSLMVYVDIPGAMDLFLNLPLVIGTIPLHPFGSRTSSVSSQCSMNMNWLSLSLPERPEAPPSYAEVVTEEQRRNNLAPVSACDDFERALQGPLFAYIQEFRFLPPPLYSEIDPNPDQSADDRPSCPSR
For B1, the binding entry in the assay with 3xHA-NEDD4 is “binds”.
